Data reported in the supplement of paper PMC11006884.
This list holds what a sample rich in targets with a hit left over. This is a noisy data set. This is a selection; strong and weak results do not stand in their true shares.

Sequences of proteins named here, by UniProt entry; tags and fusion partners are left off. A change or cut given only in a name is not applied to a line headed by its entry.
UniProt O95861: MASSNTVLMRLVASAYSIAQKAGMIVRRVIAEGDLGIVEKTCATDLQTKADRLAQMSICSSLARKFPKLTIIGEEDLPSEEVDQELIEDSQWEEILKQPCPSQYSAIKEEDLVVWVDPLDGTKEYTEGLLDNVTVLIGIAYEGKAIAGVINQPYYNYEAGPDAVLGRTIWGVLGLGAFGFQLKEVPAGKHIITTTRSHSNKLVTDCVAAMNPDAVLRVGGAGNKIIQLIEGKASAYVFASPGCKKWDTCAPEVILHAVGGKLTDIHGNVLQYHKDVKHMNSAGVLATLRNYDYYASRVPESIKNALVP
UniProt P04075: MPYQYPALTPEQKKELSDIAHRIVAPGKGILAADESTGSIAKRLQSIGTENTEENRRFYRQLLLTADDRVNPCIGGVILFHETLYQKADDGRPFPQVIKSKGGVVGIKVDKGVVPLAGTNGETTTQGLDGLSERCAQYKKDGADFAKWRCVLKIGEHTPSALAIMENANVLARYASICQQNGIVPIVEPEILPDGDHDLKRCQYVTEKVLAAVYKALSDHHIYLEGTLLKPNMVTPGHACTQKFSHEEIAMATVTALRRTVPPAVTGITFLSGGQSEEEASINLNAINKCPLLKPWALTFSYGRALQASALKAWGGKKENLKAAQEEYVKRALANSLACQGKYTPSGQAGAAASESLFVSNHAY
UniProt O94992, whole entry, looked up: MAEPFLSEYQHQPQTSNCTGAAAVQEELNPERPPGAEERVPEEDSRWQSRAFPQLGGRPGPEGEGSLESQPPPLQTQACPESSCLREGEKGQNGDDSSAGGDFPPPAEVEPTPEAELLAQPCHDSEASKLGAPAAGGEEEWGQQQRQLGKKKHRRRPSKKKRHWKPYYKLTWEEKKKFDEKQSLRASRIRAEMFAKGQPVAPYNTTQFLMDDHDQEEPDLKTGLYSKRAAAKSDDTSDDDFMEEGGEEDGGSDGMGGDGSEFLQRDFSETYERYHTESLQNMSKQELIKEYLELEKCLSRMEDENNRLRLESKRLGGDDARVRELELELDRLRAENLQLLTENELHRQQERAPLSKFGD
UniProt P07203, whole entry, looked up: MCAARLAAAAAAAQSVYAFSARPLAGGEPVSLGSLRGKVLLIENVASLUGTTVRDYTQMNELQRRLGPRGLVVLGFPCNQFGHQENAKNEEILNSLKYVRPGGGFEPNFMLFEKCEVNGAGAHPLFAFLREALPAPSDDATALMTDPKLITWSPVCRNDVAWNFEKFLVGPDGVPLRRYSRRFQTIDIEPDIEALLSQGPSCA
UniProt O96019, whole entry: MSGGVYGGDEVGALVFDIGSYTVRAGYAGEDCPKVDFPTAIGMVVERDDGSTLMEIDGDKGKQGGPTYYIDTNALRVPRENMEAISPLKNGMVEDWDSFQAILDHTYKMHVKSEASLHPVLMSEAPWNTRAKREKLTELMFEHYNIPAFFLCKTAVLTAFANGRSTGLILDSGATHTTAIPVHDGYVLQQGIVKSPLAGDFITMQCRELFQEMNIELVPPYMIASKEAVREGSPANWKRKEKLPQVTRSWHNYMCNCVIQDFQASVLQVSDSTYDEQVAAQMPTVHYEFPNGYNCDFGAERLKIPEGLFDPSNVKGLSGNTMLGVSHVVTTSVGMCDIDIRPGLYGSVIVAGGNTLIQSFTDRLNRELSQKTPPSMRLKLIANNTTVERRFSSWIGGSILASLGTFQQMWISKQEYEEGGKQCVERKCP
UniProt O94763, whole entry, looked up: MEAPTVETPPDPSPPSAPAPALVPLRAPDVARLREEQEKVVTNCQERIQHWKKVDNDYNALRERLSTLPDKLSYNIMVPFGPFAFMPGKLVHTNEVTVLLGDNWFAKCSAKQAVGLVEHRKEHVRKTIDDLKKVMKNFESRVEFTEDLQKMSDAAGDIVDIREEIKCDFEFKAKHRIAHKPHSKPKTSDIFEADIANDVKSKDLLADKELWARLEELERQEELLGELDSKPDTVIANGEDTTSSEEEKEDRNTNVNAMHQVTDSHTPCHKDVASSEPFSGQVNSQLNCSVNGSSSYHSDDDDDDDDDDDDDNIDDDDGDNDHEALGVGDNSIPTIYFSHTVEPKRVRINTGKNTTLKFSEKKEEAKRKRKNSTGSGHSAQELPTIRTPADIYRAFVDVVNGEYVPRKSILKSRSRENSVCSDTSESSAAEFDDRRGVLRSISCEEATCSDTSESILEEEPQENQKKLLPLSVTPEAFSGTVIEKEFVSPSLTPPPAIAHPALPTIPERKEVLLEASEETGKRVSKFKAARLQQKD
UniProt P02765: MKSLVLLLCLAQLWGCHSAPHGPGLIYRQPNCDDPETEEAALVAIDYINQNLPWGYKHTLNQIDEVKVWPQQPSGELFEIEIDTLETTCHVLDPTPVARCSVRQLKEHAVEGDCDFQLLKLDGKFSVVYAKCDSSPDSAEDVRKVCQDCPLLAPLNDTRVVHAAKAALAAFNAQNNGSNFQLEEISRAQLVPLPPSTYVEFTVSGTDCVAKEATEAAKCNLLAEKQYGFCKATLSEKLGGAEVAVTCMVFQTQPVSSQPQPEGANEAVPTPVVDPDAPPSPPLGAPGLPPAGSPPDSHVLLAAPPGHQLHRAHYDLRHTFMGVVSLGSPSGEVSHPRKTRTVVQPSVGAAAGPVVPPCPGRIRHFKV
UniProt P07437, whole entry, looked up: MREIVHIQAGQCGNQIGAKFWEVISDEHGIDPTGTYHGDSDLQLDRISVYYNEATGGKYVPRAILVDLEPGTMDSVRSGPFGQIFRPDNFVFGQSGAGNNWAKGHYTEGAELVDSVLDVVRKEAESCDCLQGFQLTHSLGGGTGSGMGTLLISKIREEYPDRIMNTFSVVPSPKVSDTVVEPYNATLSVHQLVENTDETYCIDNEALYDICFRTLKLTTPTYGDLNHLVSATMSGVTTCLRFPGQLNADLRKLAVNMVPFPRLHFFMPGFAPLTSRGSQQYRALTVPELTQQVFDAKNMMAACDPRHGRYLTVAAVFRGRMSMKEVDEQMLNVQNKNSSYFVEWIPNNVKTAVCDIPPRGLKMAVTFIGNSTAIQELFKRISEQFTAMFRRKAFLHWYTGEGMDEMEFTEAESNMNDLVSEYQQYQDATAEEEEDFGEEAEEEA
UniProt P00558: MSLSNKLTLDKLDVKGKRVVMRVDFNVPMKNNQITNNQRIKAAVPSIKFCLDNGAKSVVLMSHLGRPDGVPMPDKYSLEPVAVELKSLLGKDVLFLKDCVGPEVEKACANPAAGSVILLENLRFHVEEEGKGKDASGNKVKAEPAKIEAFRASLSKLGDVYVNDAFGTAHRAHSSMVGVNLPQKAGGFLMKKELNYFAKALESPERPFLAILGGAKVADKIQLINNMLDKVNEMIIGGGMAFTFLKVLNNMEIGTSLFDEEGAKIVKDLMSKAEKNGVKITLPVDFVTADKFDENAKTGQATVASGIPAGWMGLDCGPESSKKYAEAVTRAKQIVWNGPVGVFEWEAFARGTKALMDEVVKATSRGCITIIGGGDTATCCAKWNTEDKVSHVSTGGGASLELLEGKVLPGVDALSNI
UniProt O95382: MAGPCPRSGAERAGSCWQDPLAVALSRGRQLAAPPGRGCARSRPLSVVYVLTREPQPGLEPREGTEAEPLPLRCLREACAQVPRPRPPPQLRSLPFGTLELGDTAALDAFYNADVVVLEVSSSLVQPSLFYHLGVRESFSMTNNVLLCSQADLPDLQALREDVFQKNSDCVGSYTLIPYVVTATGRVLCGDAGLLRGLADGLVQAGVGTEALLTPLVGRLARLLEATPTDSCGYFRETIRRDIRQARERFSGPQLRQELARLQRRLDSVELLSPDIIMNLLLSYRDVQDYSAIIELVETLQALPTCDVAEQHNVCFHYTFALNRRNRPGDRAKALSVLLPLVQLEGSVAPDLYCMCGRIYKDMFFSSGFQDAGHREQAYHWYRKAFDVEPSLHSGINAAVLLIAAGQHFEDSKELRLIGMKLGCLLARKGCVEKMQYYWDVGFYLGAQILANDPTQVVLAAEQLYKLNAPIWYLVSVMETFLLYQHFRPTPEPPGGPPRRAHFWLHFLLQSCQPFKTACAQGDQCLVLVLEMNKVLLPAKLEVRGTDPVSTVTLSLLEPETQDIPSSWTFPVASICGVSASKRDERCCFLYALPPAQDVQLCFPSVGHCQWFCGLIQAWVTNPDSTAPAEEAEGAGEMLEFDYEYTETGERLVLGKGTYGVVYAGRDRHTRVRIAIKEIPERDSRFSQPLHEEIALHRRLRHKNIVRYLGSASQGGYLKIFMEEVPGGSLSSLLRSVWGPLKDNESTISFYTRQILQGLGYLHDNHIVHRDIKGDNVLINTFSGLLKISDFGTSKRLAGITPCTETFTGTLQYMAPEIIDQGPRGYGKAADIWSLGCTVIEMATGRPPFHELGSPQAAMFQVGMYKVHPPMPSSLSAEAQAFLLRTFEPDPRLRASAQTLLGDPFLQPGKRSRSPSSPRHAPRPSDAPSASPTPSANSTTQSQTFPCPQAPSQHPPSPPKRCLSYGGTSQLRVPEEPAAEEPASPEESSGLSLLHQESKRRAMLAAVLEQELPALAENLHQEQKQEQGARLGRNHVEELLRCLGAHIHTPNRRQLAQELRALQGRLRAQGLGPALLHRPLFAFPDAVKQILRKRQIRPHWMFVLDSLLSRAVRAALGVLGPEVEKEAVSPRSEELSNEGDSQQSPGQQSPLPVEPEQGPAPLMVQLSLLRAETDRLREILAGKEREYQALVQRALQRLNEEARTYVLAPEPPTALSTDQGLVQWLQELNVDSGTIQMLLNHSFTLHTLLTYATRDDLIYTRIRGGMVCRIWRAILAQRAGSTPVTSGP
UniProt O95999: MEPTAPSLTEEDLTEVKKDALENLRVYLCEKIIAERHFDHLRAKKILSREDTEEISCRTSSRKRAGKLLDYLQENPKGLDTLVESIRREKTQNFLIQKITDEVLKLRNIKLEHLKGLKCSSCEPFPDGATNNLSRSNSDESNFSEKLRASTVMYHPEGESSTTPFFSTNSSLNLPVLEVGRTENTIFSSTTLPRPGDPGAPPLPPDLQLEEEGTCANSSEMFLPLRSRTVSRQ
UniProt P07814: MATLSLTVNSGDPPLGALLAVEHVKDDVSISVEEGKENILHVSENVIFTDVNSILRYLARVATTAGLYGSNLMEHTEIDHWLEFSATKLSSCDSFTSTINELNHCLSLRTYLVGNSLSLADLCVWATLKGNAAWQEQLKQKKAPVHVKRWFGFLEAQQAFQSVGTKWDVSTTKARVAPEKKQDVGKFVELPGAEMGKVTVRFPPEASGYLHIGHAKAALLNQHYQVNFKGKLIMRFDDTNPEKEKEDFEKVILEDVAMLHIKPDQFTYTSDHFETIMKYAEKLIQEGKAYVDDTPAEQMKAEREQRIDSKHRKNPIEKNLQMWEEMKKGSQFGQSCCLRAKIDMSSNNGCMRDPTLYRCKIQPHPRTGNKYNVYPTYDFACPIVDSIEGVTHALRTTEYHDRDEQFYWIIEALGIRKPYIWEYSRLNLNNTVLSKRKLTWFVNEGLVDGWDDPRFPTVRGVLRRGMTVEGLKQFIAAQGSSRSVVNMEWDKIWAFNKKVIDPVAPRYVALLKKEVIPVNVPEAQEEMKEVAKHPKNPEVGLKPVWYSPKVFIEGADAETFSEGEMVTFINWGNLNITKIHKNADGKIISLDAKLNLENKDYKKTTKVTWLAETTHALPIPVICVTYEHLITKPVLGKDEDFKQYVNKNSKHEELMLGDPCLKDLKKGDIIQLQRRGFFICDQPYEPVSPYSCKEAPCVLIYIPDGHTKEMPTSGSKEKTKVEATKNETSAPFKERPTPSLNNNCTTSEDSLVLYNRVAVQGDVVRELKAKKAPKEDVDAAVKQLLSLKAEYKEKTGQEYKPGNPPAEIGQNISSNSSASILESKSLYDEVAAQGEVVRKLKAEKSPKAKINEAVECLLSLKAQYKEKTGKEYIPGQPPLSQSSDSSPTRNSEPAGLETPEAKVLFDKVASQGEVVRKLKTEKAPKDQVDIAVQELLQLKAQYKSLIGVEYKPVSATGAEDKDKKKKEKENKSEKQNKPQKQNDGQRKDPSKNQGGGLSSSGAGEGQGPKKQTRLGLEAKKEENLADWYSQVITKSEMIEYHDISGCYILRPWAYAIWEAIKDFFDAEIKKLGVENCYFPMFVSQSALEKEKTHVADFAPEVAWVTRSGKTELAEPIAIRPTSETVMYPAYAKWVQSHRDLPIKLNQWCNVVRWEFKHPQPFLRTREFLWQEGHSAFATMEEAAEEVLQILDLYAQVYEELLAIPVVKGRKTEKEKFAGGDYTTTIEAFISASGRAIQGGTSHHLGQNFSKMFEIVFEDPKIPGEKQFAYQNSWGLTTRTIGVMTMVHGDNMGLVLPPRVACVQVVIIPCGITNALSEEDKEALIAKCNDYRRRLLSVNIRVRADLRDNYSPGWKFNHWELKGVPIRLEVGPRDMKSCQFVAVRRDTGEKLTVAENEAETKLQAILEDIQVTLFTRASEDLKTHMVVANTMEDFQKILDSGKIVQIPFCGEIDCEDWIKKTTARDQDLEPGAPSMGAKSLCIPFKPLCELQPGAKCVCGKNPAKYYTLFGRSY

Each target was assayed with COC(=O)/C=C/c1ccccc1 [methyl cinnamate] (assay: log2 ratio of iodoacetamide-alkyne labeling of the cysteine site, DMSO over compound (competition); higher = stronger covalent engagement of the cysteine by the compound, active = 1 or more). Details: 500 µM; treatment time 1 h; system: HEK293T cell lysate.
Outline: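 Electrophile (500 µM) or vehicle was added to HEK293T lysate (2 mg/mL) for 1 h at ambient temperature before iodoacetamide alkyne labelling (1 h) and click coupling to sCIP-TMT reagents. After pooling, overnight trypsin digestion at 37 °C, streptavidin enrichment and acid elution, peptides were measured by Orbitrap Eclipse LC-MS/MS with FAIMS and quantified in FragPipe. Each cysteine's log2 competition ratio compares mean control-channel with mean compound-channel reporter intensity, control over compound. Data came from duplicate channels across three replicates, excluding cysteines quantified in only one replicate.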

log2 ratio of iodoacetamide-alkyne labeling, inactive:
BPNT1 C42 (UniProt O95861) 0.319, ALDOA C339 (UniProt P04075) -0.00708, HEXIM1 C84 (UniProt O94992) 0.213, GPX1 C156 (UniProt P07203) 0.202, ACTL6A C152 (UniProt O96019) -0.0329, UniProt O94826_C544 0.0724, UniProt O94763_C443 0.154, AHSG C132 (UniProt P02765) 0.366, UniProt P07437_C211 0.195, PGK1 C379 (UniProt P00558) 0.0185, UniProt O95382_C16 0.284, BCL10 C122 (UniProt O95999) 0.317, EPRS C1076 (UniProt P07814) 0.0304, UniProt O94822_C498 0.0225
